# Results are given in words; binding and its absence hold for the method and conditions named. Binding seen in cells or lysates may run through a third protein. Some binding calls cover weakened binding; strength is not graded here.
# B1: TBK1, endogenous in THP-1 cells, Q9UHD2 1-729 (enzyme)
# chain: MQSTSNHLWLLSDILGQGATANVFRGRHKKTGDLFAIKVFNNISFLRPVDVQMREFEVLKKLNHKNIVKLFAIEEETTTRHKVLIMEFCPCGSLYTVLEEPSNAYGLPESEFLIVLRDVVGGMNHLRENGIVHRDIKPGNIMRVIGEDGQSVYKLTDFGAARELEDDEQFVSLYGTEEYLHPDMYERAVLRKDHQKKYGATVDLWSIGVTFYHAATGSLPFRPFEGPRRNKEVMYKIITGKPSGAISGVQKAENGPIDWSGDMPVSCSLSRGLQVLLTPVLANILEADQEKCWGFDQFFAETSDILHRMVIHVFSLQQMTAHKIYIHSYNTATIFHELVYKQTKIISSNQELIYEGRRLVLEPGRLAQHFPKTTEENPIFVVSREPLNTIGLIYEKISLPKVHPRYDLDGDASMAKAITGVVCYACRIASTLLLYQELMRKGIRWLIELIKDDYNETVHKKTEVVITLDFCIRNIEKTVKVYEKLMKINLEAAELGEISDIHTKLLRLSSSQGTIETSLQDIDSRLSPGGSLADAWAHQEGTHPKDRNVEKLQVLLNCMTEIYYQFKKDKAERRLAYNEEQIHKFDKQKLYYHATKAMTHFTDECVKKYEAFLNKSEEWIRKMLHLRKQLLSLTNQCFDIEEEVSKYQEYTNELQETLPQKMFTASSGIKHTMTPIYPSSNTLVEMTLGMKKLKEEMEGVVKELAENNHILERFGSLTMDGGLRNVDCL
# Biological target: MITA, endogenous in THP-1 cells (human (endogenous in THP-1)), Q86WV6
# Assay: co-IP; endogenous proteins; THP-1 cells (also stably shCon or shRNF115#2) and MLFs (Rnf115+/+ and Rnf115−/−) infected with HSV-1; immunoprecipitated with anti-MITA (Fig. 7f); immunoblot
# Settings: remark: other sources report otherwise
binder,measurement,value
B1,binding,binds

# Reference: paper PMC7606512
